Laboratory results: PubChem BioAssay AID1259308 (NCATS, 2017)
Purpose: 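Genes whose loss raises luciferase production in HEK293 cells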 (primary screen). Cell system: human HEK293 embryonic kidney cells stably expressing firefly luciferase (HEK-CMV-Luc2-Hygro). Reagents: single siRNA against human genes, 0.8 pmol siRNA per well. Timing: 72 h. Detection: 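Reporter luminescence and viable-cell signal on separate replicate plates, given as percent of non-targeting control and median/MAD z-scores, plus per-cell luciferase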. Scale: total luciferase, z-score and total luciferase, % of control: higher = more reporter protein produced. Call rule: 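Active when the median/MAD z-score for overall luciferase is greater than 3; a gene was taken forward for validation with new siRNAs if at least two of its three siRNAs passed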. Meaning of the calls: active = raised luciferase; inactive = no rise.
Shown is an unselected part of about 59,000 reagents. In the full data, about 1,510 (2.6%) are marked active. 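Calls use total luciferase alone and ignore viability, so some active siRNAs may act by altering cell number.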 Unmarked entries are inactive. Reagents against one gene are numbered here. Not all columns of the deposit are shown.

KDM5C (lysine demethylase 5C) #1 | total luciferase, z-score: -0.799; total luciferase, % of control: 66
KDM5C (lysine demethylase 5C) #2 | total luciferase, z-score: 0.398; total luciferase, % of control: 89.8
KDM5C (lysine demethylase 5C) #3 | total luciferase, z-score: 0.387; total luciferase, % of control: 89.6
PIGC (phosphatidylinositol glycan anchor biosynthesis class C) #1 | total luciferase, z-score: -1.15; total luciferase, % of control: 58.9
PIGC (phosphatidylinositol glycan anchor biosynthesis class C) #2 | total luciferase, z-score: 0.203; total luciferase, % of control: 85.9
PIGC (phosphatidylinositol glycan anchor biosynthesis class C) #3 | total luciferase, z-score: -0.184; total luciferase, % of control: 78.2
MFRP (membrane frizzled-related protein) #1 | total luciferase, z-score: 4.07 (active); total luciferase, % of control: 163
MFRP (membrane frizzled-related protein) #2 | total luciferase, z-score: -1.15; total luciferase, % of control: 59
MFRP (membrane frizzled-related protein) #3 | total luciferase, z-score: 3.2 (active); total luciferase, % of control: 145

2 of these entries in another layout:
MFRP (membrane frizzled-related protein) #1
- total luciferase, z-score: 4.07 (active)
- total luciferase, % of control: 163

MFRP (membrane frizzled-related protein) #2
- total luciferase, z-score: -1.15
- total luciferase, % of control: 59

The list goes on.
GORASP1 (golgi reassembly stacking protein 1) #1 | total luciferase, z-score: -1.92; total luciferase, % of control: 43.7
GORASP1 (golgi reassembly stacking protein 1) #2 | total luciferase, z-score: -0.0188; total luciferase, % of control: 81.5
GORASP1 (golgi reassembly stacking protein 1) #3 | total luciferase, z-score: -0.311; total luciferase, % of control: 75.7
NSRP1 (nuclear speckle splicing regulatory protein 1) #1 | total luciferase, z-score: 1.93; total luciferase, % of control: 120
NSRP1 (nuclear speckle splicing regulatory protein 1) #2 | total luciferase, z-score: 0.453; total luciferase, % of control: 90.9
NSRP1 (nuclear speckle splicing regulatory protein 1) #3 | total luciferase, z-score: 2.53; total luciferase, % of control: 132
MAST4 #1 | total luciferase, z-score: 0.654; total luciferase, % of control: 94.9
MAST4 #2 | total luciferase, z-score: -0.511; total luciferase, % of control: 71.7
MAST4 #3 | total luciferase, z-score: -0.0978; total luciferase, % of control: 79.9
LOC150519 (retired record) #1 | total luciferase, z-score: -0.248; total luciferase, % of control: 77
LOC150519 (retired record) #2 | total luciferase, z-score: 0.771; total luciferase, % of control: 97.2
LOC150519 (retired record) #3 | total luciferase, z-score: 0.259; total luciferase, % of control: 87
